Among the data in the supplement of paper PMC10849652 are log2 fold change values, retold here.

Protein sequences, listed by entry. Tags and fused reporters are not part of them. Lines headed by an entry give the natural chain unless they say otherwise; changes in a name come on top.
UniProt P28062: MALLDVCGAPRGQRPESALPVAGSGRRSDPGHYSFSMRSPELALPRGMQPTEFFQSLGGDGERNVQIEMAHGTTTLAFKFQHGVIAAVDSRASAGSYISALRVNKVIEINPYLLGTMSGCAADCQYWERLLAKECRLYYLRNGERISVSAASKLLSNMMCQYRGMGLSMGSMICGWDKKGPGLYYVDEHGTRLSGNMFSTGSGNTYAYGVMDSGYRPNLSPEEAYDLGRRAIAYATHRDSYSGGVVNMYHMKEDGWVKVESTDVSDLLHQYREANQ
UniProt Q9BRX8: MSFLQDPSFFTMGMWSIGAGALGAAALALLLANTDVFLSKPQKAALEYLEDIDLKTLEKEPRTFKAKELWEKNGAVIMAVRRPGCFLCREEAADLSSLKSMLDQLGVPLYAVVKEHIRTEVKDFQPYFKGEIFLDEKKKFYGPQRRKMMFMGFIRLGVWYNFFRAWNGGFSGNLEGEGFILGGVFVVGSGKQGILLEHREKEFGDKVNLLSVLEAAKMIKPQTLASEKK
UniProt Q9P2W1: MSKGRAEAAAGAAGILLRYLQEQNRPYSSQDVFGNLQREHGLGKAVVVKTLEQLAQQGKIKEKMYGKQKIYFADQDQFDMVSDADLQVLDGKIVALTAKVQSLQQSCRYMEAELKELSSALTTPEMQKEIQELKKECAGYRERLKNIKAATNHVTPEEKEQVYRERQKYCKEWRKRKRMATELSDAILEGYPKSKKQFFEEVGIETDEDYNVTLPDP
UniProt Q9ULZ3, whole entry, looked up: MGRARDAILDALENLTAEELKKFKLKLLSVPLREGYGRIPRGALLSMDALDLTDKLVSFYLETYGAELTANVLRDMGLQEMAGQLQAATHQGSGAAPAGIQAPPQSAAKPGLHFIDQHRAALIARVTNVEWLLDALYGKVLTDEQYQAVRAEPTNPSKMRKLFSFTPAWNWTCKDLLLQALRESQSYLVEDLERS
UniProt P60484: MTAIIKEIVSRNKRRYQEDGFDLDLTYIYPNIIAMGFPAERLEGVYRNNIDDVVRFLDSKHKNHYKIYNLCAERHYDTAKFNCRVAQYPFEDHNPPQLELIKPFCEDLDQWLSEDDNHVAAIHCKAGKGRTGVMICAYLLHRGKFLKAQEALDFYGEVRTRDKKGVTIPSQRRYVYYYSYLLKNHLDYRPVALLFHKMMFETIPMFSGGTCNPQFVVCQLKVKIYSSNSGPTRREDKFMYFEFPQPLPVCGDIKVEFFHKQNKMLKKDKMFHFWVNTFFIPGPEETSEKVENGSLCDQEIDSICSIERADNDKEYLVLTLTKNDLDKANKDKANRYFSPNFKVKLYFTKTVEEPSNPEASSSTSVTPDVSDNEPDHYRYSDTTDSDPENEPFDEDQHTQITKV
UniProt P53801: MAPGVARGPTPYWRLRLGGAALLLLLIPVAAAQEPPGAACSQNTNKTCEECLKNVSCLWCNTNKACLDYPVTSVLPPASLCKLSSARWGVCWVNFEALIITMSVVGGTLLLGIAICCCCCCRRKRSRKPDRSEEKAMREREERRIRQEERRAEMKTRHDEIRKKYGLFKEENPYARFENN
UniProt O14818: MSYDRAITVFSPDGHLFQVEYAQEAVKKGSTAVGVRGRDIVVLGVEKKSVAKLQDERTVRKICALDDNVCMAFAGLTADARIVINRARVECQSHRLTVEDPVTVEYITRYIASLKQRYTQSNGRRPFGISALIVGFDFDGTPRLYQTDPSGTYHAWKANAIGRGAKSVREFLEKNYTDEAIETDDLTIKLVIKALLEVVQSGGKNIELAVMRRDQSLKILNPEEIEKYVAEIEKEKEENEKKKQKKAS
UniProt P28065: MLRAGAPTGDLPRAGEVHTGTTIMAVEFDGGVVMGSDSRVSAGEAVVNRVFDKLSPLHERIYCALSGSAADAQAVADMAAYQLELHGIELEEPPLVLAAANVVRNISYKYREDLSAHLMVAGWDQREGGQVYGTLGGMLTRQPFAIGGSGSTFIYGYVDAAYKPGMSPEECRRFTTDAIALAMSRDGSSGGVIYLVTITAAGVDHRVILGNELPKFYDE
UniProt Q8WUY3: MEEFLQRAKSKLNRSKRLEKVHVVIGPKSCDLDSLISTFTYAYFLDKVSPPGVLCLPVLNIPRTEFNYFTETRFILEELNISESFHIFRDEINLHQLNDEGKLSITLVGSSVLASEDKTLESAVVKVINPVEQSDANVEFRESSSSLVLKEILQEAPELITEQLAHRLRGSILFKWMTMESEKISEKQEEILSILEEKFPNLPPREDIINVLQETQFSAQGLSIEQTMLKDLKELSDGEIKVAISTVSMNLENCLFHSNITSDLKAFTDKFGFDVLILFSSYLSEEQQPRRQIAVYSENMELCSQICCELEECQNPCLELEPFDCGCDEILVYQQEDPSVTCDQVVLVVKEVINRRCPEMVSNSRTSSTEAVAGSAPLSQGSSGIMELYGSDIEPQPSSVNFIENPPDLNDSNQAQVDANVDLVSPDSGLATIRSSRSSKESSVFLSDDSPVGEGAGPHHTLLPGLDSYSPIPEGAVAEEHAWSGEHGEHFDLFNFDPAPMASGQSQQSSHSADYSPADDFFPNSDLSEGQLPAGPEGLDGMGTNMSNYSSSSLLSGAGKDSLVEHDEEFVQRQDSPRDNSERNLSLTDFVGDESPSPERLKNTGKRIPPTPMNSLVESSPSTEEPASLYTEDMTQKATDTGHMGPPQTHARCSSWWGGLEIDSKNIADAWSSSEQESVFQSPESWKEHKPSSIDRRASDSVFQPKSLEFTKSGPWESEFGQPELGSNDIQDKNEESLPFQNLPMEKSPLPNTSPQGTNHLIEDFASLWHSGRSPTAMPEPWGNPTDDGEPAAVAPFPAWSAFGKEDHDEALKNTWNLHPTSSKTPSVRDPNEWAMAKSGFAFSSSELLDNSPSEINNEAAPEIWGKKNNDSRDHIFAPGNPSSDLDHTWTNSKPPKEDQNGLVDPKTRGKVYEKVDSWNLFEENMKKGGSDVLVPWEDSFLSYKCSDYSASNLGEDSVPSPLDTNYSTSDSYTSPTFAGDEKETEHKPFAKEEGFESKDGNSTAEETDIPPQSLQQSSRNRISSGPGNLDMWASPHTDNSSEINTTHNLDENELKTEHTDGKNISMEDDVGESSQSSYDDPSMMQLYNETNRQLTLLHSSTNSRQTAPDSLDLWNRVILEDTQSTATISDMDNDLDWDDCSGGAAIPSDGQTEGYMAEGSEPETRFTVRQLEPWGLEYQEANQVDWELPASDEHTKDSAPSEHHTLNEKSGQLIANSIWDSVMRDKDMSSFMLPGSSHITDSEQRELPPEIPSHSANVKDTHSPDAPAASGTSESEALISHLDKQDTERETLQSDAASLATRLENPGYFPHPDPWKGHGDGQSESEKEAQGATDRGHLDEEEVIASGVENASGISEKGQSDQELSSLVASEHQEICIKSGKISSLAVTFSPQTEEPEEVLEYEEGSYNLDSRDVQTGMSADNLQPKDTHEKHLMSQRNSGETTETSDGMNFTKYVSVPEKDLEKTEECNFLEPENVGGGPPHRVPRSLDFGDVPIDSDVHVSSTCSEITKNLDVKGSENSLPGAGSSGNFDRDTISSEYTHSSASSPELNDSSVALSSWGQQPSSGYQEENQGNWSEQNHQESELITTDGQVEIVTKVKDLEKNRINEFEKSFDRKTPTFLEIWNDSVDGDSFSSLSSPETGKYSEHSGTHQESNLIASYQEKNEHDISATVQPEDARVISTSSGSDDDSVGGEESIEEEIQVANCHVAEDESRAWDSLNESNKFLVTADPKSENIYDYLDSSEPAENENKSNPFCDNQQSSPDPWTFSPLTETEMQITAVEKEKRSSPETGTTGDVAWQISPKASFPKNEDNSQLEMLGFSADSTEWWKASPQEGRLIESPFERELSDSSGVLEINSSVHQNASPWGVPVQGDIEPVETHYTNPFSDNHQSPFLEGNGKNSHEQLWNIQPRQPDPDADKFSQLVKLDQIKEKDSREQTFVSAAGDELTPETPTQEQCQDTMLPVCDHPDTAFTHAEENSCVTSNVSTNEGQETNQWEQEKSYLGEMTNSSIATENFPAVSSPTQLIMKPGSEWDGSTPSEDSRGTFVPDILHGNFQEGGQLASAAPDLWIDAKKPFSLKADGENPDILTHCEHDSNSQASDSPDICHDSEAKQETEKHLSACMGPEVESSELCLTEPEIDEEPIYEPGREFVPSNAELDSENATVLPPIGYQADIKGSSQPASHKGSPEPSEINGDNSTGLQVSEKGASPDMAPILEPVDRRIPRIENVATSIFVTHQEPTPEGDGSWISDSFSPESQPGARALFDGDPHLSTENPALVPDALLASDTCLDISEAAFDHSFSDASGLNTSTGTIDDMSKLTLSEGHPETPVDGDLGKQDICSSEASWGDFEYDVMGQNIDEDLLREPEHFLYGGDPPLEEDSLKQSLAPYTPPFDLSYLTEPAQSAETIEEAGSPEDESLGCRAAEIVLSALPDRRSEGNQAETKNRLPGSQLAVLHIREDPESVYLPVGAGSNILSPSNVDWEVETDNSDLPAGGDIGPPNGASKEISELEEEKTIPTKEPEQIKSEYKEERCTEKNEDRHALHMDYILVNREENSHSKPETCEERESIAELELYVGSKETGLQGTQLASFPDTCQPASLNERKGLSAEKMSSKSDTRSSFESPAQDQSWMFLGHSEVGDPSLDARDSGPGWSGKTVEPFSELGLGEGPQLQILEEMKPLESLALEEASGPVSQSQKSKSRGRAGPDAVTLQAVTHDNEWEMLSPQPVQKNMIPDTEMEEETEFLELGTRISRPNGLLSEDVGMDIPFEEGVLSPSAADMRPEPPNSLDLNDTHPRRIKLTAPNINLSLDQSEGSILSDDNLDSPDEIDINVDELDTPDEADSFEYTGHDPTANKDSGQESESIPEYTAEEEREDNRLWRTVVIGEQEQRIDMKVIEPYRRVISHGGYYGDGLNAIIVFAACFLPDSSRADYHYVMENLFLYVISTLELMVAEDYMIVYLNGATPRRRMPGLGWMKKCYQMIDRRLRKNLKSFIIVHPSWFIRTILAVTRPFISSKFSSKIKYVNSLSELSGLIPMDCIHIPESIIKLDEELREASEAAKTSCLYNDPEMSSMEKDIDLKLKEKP
UniProt Q96I23: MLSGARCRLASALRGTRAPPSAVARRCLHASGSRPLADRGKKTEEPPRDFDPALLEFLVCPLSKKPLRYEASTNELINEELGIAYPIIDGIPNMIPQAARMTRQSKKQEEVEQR
UniProt P43115: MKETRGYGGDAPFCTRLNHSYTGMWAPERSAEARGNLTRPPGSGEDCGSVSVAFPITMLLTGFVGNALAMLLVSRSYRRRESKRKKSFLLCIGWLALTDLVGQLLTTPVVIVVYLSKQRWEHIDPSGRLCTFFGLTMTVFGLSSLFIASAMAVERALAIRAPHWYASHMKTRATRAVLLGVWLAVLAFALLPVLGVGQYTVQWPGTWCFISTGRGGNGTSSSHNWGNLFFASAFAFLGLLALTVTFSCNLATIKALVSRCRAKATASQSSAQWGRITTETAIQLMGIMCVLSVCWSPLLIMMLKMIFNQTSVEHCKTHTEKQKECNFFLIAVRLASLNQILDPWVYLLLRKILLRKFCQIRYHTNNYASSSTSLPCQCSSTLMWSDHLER
UniProt Q03393: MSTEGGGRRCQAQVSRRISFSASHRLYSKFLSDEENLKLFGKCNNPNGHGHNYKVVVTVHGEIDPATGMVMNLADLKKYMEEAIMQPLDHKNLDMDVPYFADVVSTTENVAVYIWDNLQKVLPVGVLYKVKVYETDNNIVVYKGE
UniProt P15151: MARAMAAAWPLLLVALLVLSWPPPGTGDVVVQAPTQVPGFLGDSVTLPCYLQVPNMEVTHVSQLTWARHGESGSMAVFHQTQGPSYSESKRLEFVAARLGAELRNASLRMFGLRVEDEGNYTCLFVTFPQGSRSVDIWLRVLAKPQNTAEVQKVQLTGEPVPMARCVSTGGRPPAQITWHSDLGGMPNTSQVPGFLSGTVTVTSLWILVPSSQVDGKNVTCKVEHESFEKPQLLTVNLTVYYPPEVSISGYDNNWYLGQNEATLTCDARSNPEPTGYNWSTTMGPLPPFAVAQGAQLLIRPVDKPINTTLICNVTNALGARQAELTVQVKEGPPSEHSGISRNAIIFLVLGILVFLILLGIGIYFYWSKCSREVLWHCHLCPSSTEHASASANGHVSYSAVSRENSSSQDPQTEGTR
UniProt O75365, whole entry, looked up: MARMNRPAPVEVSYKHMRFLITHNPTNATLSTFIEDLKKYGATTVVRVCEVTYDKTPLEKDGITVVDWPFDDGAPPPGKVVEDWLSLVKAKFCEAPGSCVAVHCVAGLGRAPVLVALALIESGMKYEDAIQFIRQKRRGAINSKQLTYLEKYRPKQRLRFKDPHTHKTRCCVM
UniProt P40306: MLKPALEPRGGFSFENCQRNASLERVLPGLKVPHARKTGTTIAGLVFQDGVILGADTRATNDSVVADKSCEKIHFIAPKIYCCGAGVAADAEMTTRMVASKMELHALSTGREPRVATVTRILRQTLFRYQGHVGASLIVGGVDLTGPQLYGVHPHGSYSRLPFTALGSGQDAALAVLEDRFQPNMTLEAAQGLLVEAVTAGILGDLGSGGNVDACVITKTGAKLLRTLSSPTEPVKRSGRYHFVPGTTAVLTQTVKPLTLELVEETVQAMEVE

Some of the results follow.

Compound in one assay: CCN(CC)Cc1ccc2cc(COC(=O)Nc3ccc(C(=O)NO)cc3)ccc2c1 [givinostat]
In words: log2 fold change, soluble protein after heating vs DMSO (PISA); higher = thermal stabilisation; K562 cells, 10 uM, 30 min; active = over 0.2 and 3.5 SD of the protein, either way, in both replicates (recomputed). The essentials: (§1)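 K562 cells (2×10^6 cells/mL) were treated with 10 μM compound for 30 min, and aliquots were heated for 3 min over 48°C-58°C. Pooled aliquots were extracted in PBS with 0.5% NP-40 at 4°C, and the supernatant after 21,000xg for 90 min was measured by TMTpro 16plex LC-MS/MS with channel sums equalised. Reported thermal stability, relative to control samples and from duplicates, is a log2 fold change.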
Consider PSMB8 (UniProt P28062), for which the log2 fold change is inactive: 0.049.
On the same count and under the same terms, with PRXL2A (UniProt Q9BRX8) the figure was inactive: -0.108.
On the same count and under the same terms, the result for PYCR1 (UniProt J3QKT4) reads inactive: 0.215; that for PSMC3IP (UniProt Q9P2W1), inactive: 0.037.
With PYCARD isoform 2 (UniProt Q9ULZ3), the log2 fold change was inactive: 0.097.
Same read-out and setting: with PTEN isoform 2 (UniProt P60484) the figure was inactive: -0.086; with PTTG1IP (UniProt P53801), inactive: -0.124.
Still for that read-out and setting: with PSMA7 isoform 2 (UniProt O14818) the figure was inactive: -0.014; with PSMB9 (UniProt P28065), inactive: -0.179.
Still for that read-out and setting: the result for R3HCC1L (UniProt Q7Z5L2) reads inactive: 0.258; that for PUM1 (UniProt Q14671), inactive: 0.08.
Regarding PTBP2 isoform 3 (UniProt Q9UKA9), the log2 fold change is inactive: 0.133.
Still for that read-out and setting: the result for PSMC1 (UniProt G3V4X1) reads inactive: 0.095; that for PRUNE2 isoform 3 (UniProt Q8WUY3), inactive: 0.038.
Regarding PYURF (UniProt Q96I23), the log2 fold change is inactive: -0.034.
On the same count and under the same terms, with PTGER3 isoform 2 (UniProt P43115) the figure was inactive: -0.099; with PTS (UniProt Q03393), inactive: -0.035.

Compound in the next assay: CCN(CCCOc1ccc2c(Nc3cc(CC(=O)Nc4cccc(F)c4)[nH]n3)ncnc2c1)CCOP(=O)(O)O [barasertib]
The description is as above. The essentials:
as §1
For the target PSMC3 (UniProt E9PLG2), the log2 fold change was inactive: 0.02.
With PRXL2A (UniProt Q9BRX8), the log2 fold change was inactive: 0.198.
Regarding PTPRN2 isoform 3 (UniProt Q92932), the log2 fold change was inactive: 0.093.
On the same count and under the same terms, with PYCR1 (UniProt J3QKT4) the figure was inactive: 0.061; with PSMC3IP (UniProt Q9P2W1), inactive: 0.016.
The same measure, in the same setting: the result for PSMD4 (UniProt Q5VWC4) reads inactive: -0.046; that for PTTG1IP (UniProt P53801), inactive: -0.025; that for PSMA7 isoform 2 (UniProt O14818), inactive: 0.042.
Take PSMB9 (UniProt P28065): the log2 fold change is inactive: 0.12.
Take PVR (UniProt P15151): the log2 fold change is inactive: 0.015.
Same read-out and setting: with PTP4A3 (UniProt O75365) the figure was inactive: -0.01; with PSMA3 (UniProt G3V4X5), inactive: 0.103; with PUF60 isoform 2 (UniProt Q9UHX1), inactive: 0.095.
The same measure, in the same setting: the result for PYURF (UniProt Q96I23) reads inactive: 0.008; that for PTS (UniProt Q03393), inactive: -0.001.

Compound in another assay: CC[C@@H]1C(=O)N(C)c2cnc(Nc3ccc(C(=O)NC4CCN(C)CC4)cc3OC)nc2N1C1CCCC1
Described as above. The essentials: as §1
In the case of PRXL2A (UniProt Q9BRX8), the log2 fold change was inactive: 0.151.
On the same count and under the same terms, the result for PTPRN2 isoform 3 (UniProt Q92932) reads inactive: 0.083.
Consider PYCR1 (UniProt J3QKT4), for which the log2 fold change is inactive: 0.266.
In the case of PSMC3IP (UniProt Q9P2W1), the log2 fold change was inactive: -0.4.
PSMD4 (UniProt Q5VWC4): the log2 fold change is inactive: -0.029.
On the same count and under the same terms, the result for PTEN isoform 2 (UniProt P60484) reads inactive: 0.024; that for PTTG1IP (UniProt P53801), inactive: -0.223; that for PSMA7 isoform 2 (UniProt O14818), inactive: 0.16.
Still for that read-out and setting: the result for PSMB9 (UniProt P28065) reads inactive: 0.114; that for PSIP1 (UniProt V9GYT7), inactive: 0.196.
As to PVR (UniProt P15151), the log2 fold change is inactive: 0.046.
Same read-out and setting: with PSMA3 (UniProt H0YJ03) the figure was inactive: 0.115; with PSD3 (UniProt Q9NYI0), inactive: -0.019; with PRUNE2 isoform 3 (UniProt Q8WUY3), inactive: -0.241.
Turning to PSMB10 (UniProt P40306), the log2 fold change was inactive: 0.048.
Still for that read-out and setting: with PYURF (UniProt Q96I23) the figure was inactive: 0.055; with PTS (UniProt Q03393), inactive: -0.027.

Compound in the next assay: CC[C@@H]1C(=O)N(C)c2cnc(Nc3ccc(C(=O)N[C@H]4CC[C@H](N5CCN(CC6CC6)CC5)CC4)cc3OC)nc2N1C(C)C [volasertib]
Described as above. The essentials: as §1
Take PRXL2A (UniProt Q9BRX8): the log2 fold change is inactive: -0.084.
The same measure, in the same setting: the result for PSMC3IP (UniProt Q9P2W1) reads inactive: -0.345; that for PSMD4 (UniProt Q5VWC4), inactive: 0.025.
On the same count and under the same terms, the result for PTEN isoform 2 (UniProt P60484) reads inactive: 0.05.
Same read-out and setting: the result for PTTG1IP (UniProt P53801) reads inactive: -0.05.
In the case of PSMA7 isoform 2 (UniProt O14818), the log2 fold change was inactive: 0.028.
Consider PSMB9 (UniProt P28065), for which the log2 fold change is inactive: 0.008.
Still for that read-out and setting: the result for R3HCC1L (UniProt Q7Z5L2) reads inactive: -0.452.
On the same count and under the same terms, with PSIP1 (UniProt V9GYT7) the figure was inactive: 0.01.
Still for that read-out and setting: with PVR (UniProt P15151) the figure was inactive: -0.029; with PTBP2 isoform 3 (UniProt Q9UKA9), inactive: -0.112.
PSMA3 (UniProt H0YJ03): the log2 fold change was inactive: 0.076.
On to PSMC1 (UniProt G3V4X1), for which the log2 fold change is inactive: 0.141.
For the target PSD3 (UniProt Q9NYI0), the log2 fold change was inactive: -0.108.
The same measure, in the same setting: with PSMA3 (UniProt G3V4X5) the figure was inactive: 0.139; with PRUNE2 isoform 3 (UniProt Q8WUY3), inactive: -0.109.
Turning to PUF60 isoform 2 (UniProt Q9UHX1), the log2 fold change was inactive: -0.372.
Same read-out and setting: with PSMB10 (UniProt P40306) the figure was inactive: 0.013; with PYURF (UniProt Q96I23), inactive: 0.166.
The same measure, in the same setting: the result for PTS (UniProt Q03393) reads inactive: 0.098.
